Ten molecules from publication PMC5906670, “Structural basis of epilepsy-related ligand–receptor complex LGI1–ADAM22” (Nature Communications, 2018) can be followed below.

By UniProt entry, the sequences of proteins in these tests, tags left out. Where a name states a change or a piece, a line headed by the entry shows the natural chain unless it says otherwise.
UniProt O75077: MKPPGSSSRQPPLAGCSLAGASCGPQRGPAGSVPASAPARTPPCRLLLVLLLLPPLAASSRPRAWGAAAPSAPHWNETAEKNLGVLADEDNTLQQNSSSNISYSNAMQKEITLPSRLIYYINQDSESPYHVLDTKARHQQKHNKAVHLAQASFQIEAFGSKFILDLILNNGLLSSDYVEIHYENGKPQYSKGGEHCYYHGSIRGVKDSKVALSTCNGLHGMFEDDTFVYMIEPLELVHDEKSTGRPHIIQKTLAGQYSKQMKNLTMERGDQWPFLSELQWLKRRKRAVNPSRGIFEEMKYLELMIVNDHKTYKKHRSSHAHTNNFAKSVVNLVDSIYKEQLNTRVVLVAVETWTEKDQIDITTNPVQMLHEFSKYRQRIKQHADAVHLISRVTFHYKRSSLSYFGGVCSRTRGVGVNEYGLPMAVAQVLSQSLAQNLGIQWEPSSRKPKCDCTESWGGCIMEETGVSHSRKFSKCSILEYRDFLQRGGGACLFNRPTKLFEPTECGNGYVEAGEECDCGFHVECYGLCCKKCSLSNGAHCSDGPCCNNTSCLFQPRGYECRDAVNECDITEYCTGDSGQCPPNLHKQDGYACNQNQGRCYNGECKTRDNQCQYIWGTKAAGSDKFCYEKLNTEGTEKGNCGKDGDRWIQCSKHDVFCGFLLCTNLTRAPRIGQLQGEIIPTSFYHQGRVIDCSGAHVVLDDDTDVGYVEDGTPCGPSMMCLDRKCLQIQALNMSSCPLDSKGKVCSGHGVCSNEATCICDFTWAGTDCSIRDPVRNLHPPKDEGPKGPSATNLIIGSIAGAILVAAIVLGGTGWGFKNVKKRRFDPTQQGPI

These are yes or no findings as the source states them, for the method shown. In cells and extracts the contact can be indirect. Binding can be weak; no strength is given. Tags and fused reporters may be left off the sequences shown.

First the molecules themselves.
B1: LGI1 (wild type, pull-down with ADAM22/23 ECD-FLAG) (ligand, UniProt O95970-1 35-557)
chain: KKPAKPKCPAVCTCTKDNALCENARSIPRTVPPDVISLSFVRSGFTEISEGSFLFTPSLQLLLFTSNSFDVISDDAFIGLPHLEYLFIENNNIKSISRHTFRGLKSLIHLSLANNNLQTLPKDIFKGLDSLTNVDLRGNSFNCDCKLKWLVEWLGHTNATVEDIYCEGPPEYKKRKINSLSSKDFDCIITEFAKSQDLPYQSLSIDTFSYLNDEYVVIAQPFTGKCIFLEWDHVEKTFRNYDNITGTSTVVCKPIVIETQLYVIVAQLFGGSHIYKRDSFANKFIKIQDIEILKIRKPNDIETFKIENNWYFVVADSSKAGFTTIYKWNGNGFYSHQSLHAWYRDTDVEYLEIVRTPQTLRTPHLILSSSSQRPVIYQWNKATQLFTNQTDIPNMEDVYAVKHFSVKGDVYICLTRFIGDSKVMKWGGSSFQDIQRMPSRGSMVFQPLQINNYQYAILGSDYSFTQVYNWDAEKAKFVKFQELNVQAPRSFTHVSINKRNFLFASSFKGNTQIYKHVIVDLSA
B2: LGI1 R470A (pull-down) (ligand, UniProt O95970-1 35-557)
chain: KKPAKPKCPAVCTCTKDNALCENARSIPRTVPPDVISLSFVRSGFTEISEGSFLFTPSLQLLLFTSNSFDVISDDAFIGLPHLEYLFIENNNIKSISRHTFRGLKSLIHLSLANNNLQTLPKDIFKGLDSLTNVDLRGNSFNCDCKLKWLVEWLGHTNATVEDIYCEGPPEYKKRKINSLSSKDFDCIITEFAKSQDLPYQSLSIDTFSYLNDEYVVIAQPFTGKCIFLEWDHVEKTFRNYDNITGTSTVVCKPIVIETQLYVIVAQLFGGSHIYKRDSFANKFIKIQDIEILKIRKPNDIETFKIENNWYFVVADSSKAGFTTIYKWNGNGFYSHQSLHAWYRDTDVEYLEIVRTPQTLRTPHLILSSSSQRPVIYQWNKATQLFTNQTDIPNMEDVYAVKHFSVKGDVYICLTRFIGDSKVMKWGGSSFQDIQAMPSRGSMVFQPLQINNYQYAILGSDYSFTQVYNWDAEKAKFVKFQELNVQAPRSFTHVSINKRNFLFASSFKGNTQIYKHVIVDLSA
B3: LGI1 Y433A (ligand, UniProt O95970-1 35-557)
chain: KKPAKPKCPAVCTCTKDNALCENARSIPRTVPPDVISLSFVRSGFTEISEGSFLFTPSLQLLLFTSNSFDVISDDAFIGLPHLEYLFIENNNIKSISRHTFRGLKSLIHLSLANNNLQTLPKDIFKGLDSLTNVDLRGNSFNCDCKLKWLVEWLGHTNATVEDIYCEGPPEYKKRKINSLSSKDFDCIITEFAKSQDLPYQSLSIDTFSYLNDEYVVIAQPFTGKCIFLEWDHVEKTFRNYDNITGTSTVVCKPIVIETQLYVIVAQLFGGSHIYKRDSFANKFIKIQDIEILKIRKPNDIETFKIENNWYFVVADSSKAGFTTIYKWNGNGFYSHQSLHAWYRDTDVEYLEIVRTPQTLRTPHLILSSSSQRPVIYQWNKATQLFTNQTDIPNMEDVAAVKHFSVKGDVYICLTRFIGDSKVMKWGGSSFQDIQRMPSRGSMVFQPLQINNYQYAILGSDYSFTQVYNWDAEKAKFVKFQELNVQAPRSFTHVSINKRNFLFASSFKGNTQIYKHVIVDLSA
B4: LGI1 R330A K331A (ligand, UniProt O95970-1 35-557)
chain: KKPAKPKCPAVCTCTKDNALCENARSIPRTVPPDVISLSFVRSGFTEISEGSFLFTPSLQLLLFTSNSFDVISDDAFIGLPHLEYLFIENNNIKSISRHTFRGLKSLIHLSLANNNLQTLPKDIFKGLDSLTNVDLRGNSFNCDCKLKWLVEWLGHTNATVEDIYCEGPPEYKKRKINSLSSKDFDCIITEFAKSQDLPYQSLSIDTFSYLNDEYVVIAQPFTGKCIFLEWDHVEKTFRNYDNITGTSTVVCKPIVIETQLYVIVAQLFGGSHIYKRDSFANKFIKIQDIEILKIAAPNDIETFKIENNWYFVVADSSKAGFTTIYKWNGNGFYSHQSLHAWYRDTDVEYLEIVRTPQTLRTPHLILSSSSQRPVIYQWNKATQLFTNQTDIPNMEDVYAVKHFSVKGDVYICLTRFIGDSKVMKWGGSSFQDIQRMPSRGSMVFQPLQINNYQYAILGSDYSFTQVYNWDAEKAKFVKFQELNVQAPRSFTHVSINKRNFLFASSFKGNTQIYKHVIVDLSA
B5: LGI1 M477A (ligand, UniProt O95970-1 35-557)
chain: KKPAKPKCPAVCTCTKDNALCENARSIPRTVPPDVISLSFVRSGFTEISEGSFLFTPSLQLLLFTSNSFDVISDDAFIGLPHLEYLFIENNNIKSISRHTFRGLKSLIHLSLANNNLQTLPKDIFKGLDSLTNVDLRGNSFNCDCKLKWLVEWLGHTNATVEDIYCEGPPEYKKRKINSLSSKDFDCIITEFAKSQDLPYQSLSIDTFSYLNDEYVVIAQPFTGKCIFLEWDHVEKTFRNYDNITGTSTVVCKPIVIETQLYVIVAQLFGGSHIYKRDSFANKFIKIQDIEILKIRKPNDIETFKIENNWYFVVADSSKAGFTTIYKWNGNGFYSHQSLHAWYRDTDVEYLEIVRTPQTLRTPHLILSSSSQRPVIYQWNKATQLFTNQTDIPNMEDVYAVKHFSVKGDVYICLTRFIGDSKVMKWGGSSFQDIQRMPSRGSAVFQPLQINNYQYAILGSDYSFTQVYNWDAEKAKFVKFQELNVQAPRSFTHVSINKRNFLFASSFKGNTQIYKHVIVDLSA
B6: LGI1 K331A (ligand, UniProt O95970-1 35-557)
chain: KKPAKPKCPAVCTCTKDNALCENARSIPRTVPPDVISLSFVRSGFTEISEGSFLFTPSLQLLLFTSNSFDVISDDAFIGLPHLEYLFIENNNIKSISRHTFRGLKSLIHLSLANNNLQTLPKDIFKGLDSLTNVDLRGNSFNCDCKLKWLVEWLGHTNATVEDIYCEGPPEYKKRKINSLSSKDFDCIITEFAKSQDLPYQSLSIDTFSYLNDEYVVIAQPFTGKCIFLEWDHVEKTFRNYDNITGTSTVVCKPIVIETQLYVIVAQLFGGSHIYKRDSFANKFIKIQDIEILKIRAPNDIETFKIENNWYFVVADSSKAGFTTIYKWNGNGFYSHQSLHAWYRDTDVEYLEIVRTPQTLRTPHLILSSSSQRPVIYQWNKATQLFTNQTDIPNMEDVYAVKHFSVKGDVYICLTRFIGDSKVMKWGGSSFQDIQRMPSRGSMVFQPLQINNYQYAILGSDYSFTQVYNWDAEKAKFVKFQELNVQAPRSFTHVSINKRNFLFASSFKGNTQIYKHVIVDLSA
B7: LGI1 R407C (pull-down in vitro) (ligand, UniProt O95970-1 35-557)
chain: KKPAKPKCPAVCTCTKDNALCENARSIPRTVPPDVISLSFVRSGFTEISEGSFLFTPSLQLLLFTSNSFDVISDDAFIGLPHLEYLFIENNNIKSISRHTFRGLKSLIHLSLANNNLQTLPKDIFKGLDSLTNVDLRGNSFNCDCKLKWLVEWLGHTNATVEDIYCEGPPEYKKRKINSLSSKDFDCIITEFAKSQDLPYQSLSIDTFSYLNDEYVVIAQPFTGKCIFLEWDHVEKTFRNYDNITGTSTVVCKPIVIETQLYVIVAQLFGGSHIYKRDSFANKFIKIQDIEILKIRKPNDIETFKIENNWYFVVADSSKAGFTTIYKWNGNGFYSHQSLHAWYRDTDVEYLEIVRTPQTLRTPHLILSSSSQCPVIYQWNKATQLFTNQTDIPNMEDVYAVKHFSVKGDVYICLTRFIGDSKVMKWGGSSFQDIQRMPSRGSMVFQPLQINNYQYAILGSDYSFTQVYNWDAEKAKFVKFQELNVQAPRSFTHVSINKRNFLFASSFKGNTQIYKHVIVDLSA
B8: LGI1 R330A (ligand, UniProt O95970-1 35-557)
chain: KKPAKPKCPAVCTCTKDNALCENARSIPRTVPPDVISLSFVRSGFTEISEGSFLFTPSLQLLLFTSNSFDVISDDAFIGLPHLEYLFIENNNIKSISRHTFRGLKSLIHLSLANNNLQTLPKDIFKGLDSLTNVDLRGNSFNCDCKLKWLVEWLGHTNATVEDIYCEGPPEYKKRKINSLSSKDFDCIITEFAKSQDLPYQSLSIDTFSYLNDEYVVIAQPFTGKCIFLEWDHVEKTFRNYDNITGTSTVVCKPIVIETQLYVIVAQLFGGSHIYKRDSFANKFIKIQDIEILKIAKPNDIETFKIENNWYFVVADSSKAGFTTIYKWNGNGFYSHQSLHAWYRDTDVEYLEIVRTPQTLRTPHLILSSSSQRPVIYQWNKATQLFTNQTDIPNMEDVYAVKHFSVKGDVYICLTRFIGDSKVMKWGGSSFQDIQRMPSRGSMVFQPLQINNYQYAILGSDYSFTQVYNWDAEKAKFVKFQELNVQAPRSFTHVSINKRNFLFASSFKGNTQIYKHVIVDLSA
B9: full-length LGI1 (residues 37–557), C-terminal His6 (ligand, human, UniProt O95970-1 37-557, looked up)
chain: PAKPKCPAVCTCTKDNALCENARSIPRTVPPDVISLSFVRSGFTEISEGSFLFTPSLQLLLFTSNSFDVISDDAFIGLPHLEYLFIENNNIKSISRHTFRGLKSLIHLSLANNNLQTLPKDIFKGLDSLTNVDLRGNSFNCDCKLKWLVEWLGHTNATVEDIYCEGPPEYKKRKINSLSSKDFDCIITEFAKSQDLPYQSLSIDTFSYLNDEYVVIAQPFTGKCIFLEWDHVEKTFRNYDNITGTSTVVCKPIVIETQLYVIVAQLFGGSHIYKRDSFANKFIKIQDIEILKIRKPNDIETFKIENNWYFVVADSSKAGFTTIYKWNGNGFYSHQSLHAWYRDTDVEYLEIVRTPQTLRTPHLILSSSSQRPVIYQWNKATQLFTNQTDIPNMEDVYAVKHFSVKGDVYICLTRFIGDSKVMKWGGSSFQDIQRMPSRGSMVFQPLQINNYQYAILGSDYSFTQVYNWDAEKAKFVKFQELNVQAPRSFTHVSINKRNFLFASSFKGNTQIYKHVIVDLSA
notes: LGI1, human, cDNA NM_005097; 'full length, residues 37–557' (without the signal peptide); PDB 5Y31 holds the R470A mutant of the same limits; also called LGI1^WT; source: Expi293F, transient, co-expressed with non-tagged ADAM22 ECD; purified from culture medium (Ni-NTA, SEC)
B10: LGI1^R474Q (residues 37–557), C-terminal His6 (ligand, human, UniProt O95970-1 37-557, looked up)
chain: PAKPKCPAVCTCTKDNALCENARSIPRTVPPDVISLSFVRSGFTEISEGSFLFTPSLQLLLFTSNSFDVISDDAFIGLPHLEYLFIENNNIKSISRHTFRGLKSLIHLSLANNNLQTLPKDIFKGLDSLTNVDLRGNSFNCDCKLKWLVEWLGHTNATVEDIYCEGPPEYKKRKINSLSSKDFDCIITEFAKSQDLPYQSLSIDTFSYLNDEYVVIAQPFTGKCIFLEWDHVEKTFRNYDNITGTSTVVCKPIVIETQLYVIVAQLFGGSHIYKRDSFANKFIKIQDIEILKIRKPNDIETFKIENNWYFVVADSSKAGFTTIYKWNGNGFYSHQSLHAWYRDTDVEYLEIVRTPQTLRTPHLILSSSSQRPVIYQWNKATQLFTNQTDIPNMEDVYAVKHFSVKGDVYICLTRFIGDSKVMKWGGSSFQDIQRMPSQGSMVFQPLQINNYQYAILGSDYSFTQVYNWDAEKAKFVKFQELNVQAPRSFTHVSINKRNFLFASSFKGNTQIYKHVIVDLSA
notes: LGI1, human, cDNA NM_005097, residues 37-557; R474Q is a human ADLTE mutation; source: Expi293F, transient, co-expressed with ADAM22 ECD; purified as the complex (Ni-NTA, SEC)

This assay concerns the target ADAM23 ECD-FLAG (human) (UniProt O75077). The assay can be described thus: pull-down; culture media of HEK293T cells with LGI1 (wild type or mutant) and ADAM22 ECD-FLAG or ADAM23 ECD-FLAG mixed for 1 h at 4 °C; pulled down with anti-FLAG M2 agarose; Western blot with anti-FLAG and anti-LGI1.
For B1, the binding result is “binds”.
Regarding B2, the binding result is reported as “binds”.
Then B3, with “binds weakly”.
As for B4, the binding entry is reported as “binds weakly”.
B5: the binding result was “binds weakly”.
For the molecule B6, the binding result was “binds”.
Then B7, with “binds”; and B8, with “binds”.
Next, B9: “binds”; B10: “binds”.
